Numbering of substitutions follows the chain as printed. For some of these results: No signal at the amounts used counts as a negative. Tags and fusion partners may be left off the protein sequences shown. For some of these results: The comparison behind a weaker result is the experiment's own reference, which may not be listed here.
Assays:
[1] = target: T1, ArcA (chromosomal) (Escherichia coli) (UniProt P0A9Q1); test: activity in cells; details: repression abolished, anaerobic; protein in cells; variant of icdA P1 wt; only the site is given
T1 sequence (looked up, limits assumed): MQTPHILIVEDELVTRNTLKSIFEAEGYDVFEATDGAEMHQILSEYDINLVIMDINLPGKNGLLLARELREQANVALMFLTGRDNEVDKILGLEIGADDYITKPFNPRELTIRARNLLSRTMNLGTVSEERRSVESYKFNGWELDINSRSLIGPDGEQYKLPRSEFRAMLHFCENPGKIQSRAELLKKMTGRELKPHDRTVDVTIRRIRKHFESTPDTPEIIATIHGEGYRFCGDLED

[2] = target: T2, ArcA D54A (Escherichia coli) (UniProt P0A9Q1); test: activity in cells; details: repression reduced versus wt ArcA, protein in cells, only the site is given
T2 sequence (looked up, limits assumed): T1 sequence (looked up, limits assumed) with D54A

[3] = target: T3, ArcA D54E (Escherichia coli) (UniProt P0A9Q1); test: activity in cells; details: aerobic repression above wt ArcA, protein in cells, only the site is given
T3 sequence (looked up, limits assumed): T1 sequence (looked up, limits assumed) with D54E

[4] = target: T4, His6-ArcA-P (Escherichia coli) (UniProt P0A9Q1); test: footprint; details: binds DR1 and DR2 but not DR3, data not shown; purified recombinant protein; protein details: N-terminal His tag, phosphorylated; label: 3' 32P (footprint)
T4 sequence (looked up, limits assumed): T1 sequence (looked up, limits assumed)

[5] = indistinguishable from wt ArcA anaerobically, variant of icdA P1 wt

Row | Sequence | activity on this sequence [1] | activity on this sequence ([2]; variant of icdA P1 wt) | activity on this sequence [3, 5] | also measured
1 | AGAGCAATTTTTTCATAATGATTTGTAATTGGCTTGTCAATACTACCCTATTGT (double strand) [icdA P1 DR1 GT->CA] | not active | – | – | –
2 | AGAGCAATTTTTTGTTAATGATTTCAAATTGGCTTGTCAATACTACCCTATTGT (double strand) [icdA P1 DR2 GT->CA] | not active | – | – | –
3 | ATGTTAATTTTTTGTTAATGATTTGTAATTGGCTTGTCAATACTACCCTATTGT (double strand) [icdA P1 5' DR4] | – | less active | active | –
4 | AGAGCAATTTTTTGTTAATGATTTGTTATTGGCTTGTTAATACTACCCTATTGT (double strand) [icdA P1 DR2 A->T, DR3 C->T] | – | less active | active | –
5 | AGAGCAATTTTTTGTTAATGATTTGTAATTGGCTTGTCAATACTACCCTATTGT (double strand) [icdA P1 wt] | – | – | – | binding result [4]: binds more weakly; activity on this sequence [2]: less active; activity on this sequence ([3]; repression largely eliminated anaerobically): less active
6 | AGAGCAATTTTTTGTTAATGATTTGTAATTGGCTTGTTAATACTACCCTATTGT (double strand) [icdA P1 DR3 C->T] | – | less active | – | –

From patent publication US20150197757, “OXYGEN-RESPONSIVE BACTERIAL GENE SWITCH” (Wisconsin Alumni Research Foundation, published 2015)
